# In PubChem BioAssay AID504648 (National Center for Advancing Translational Sciences (NCATS), 2011):
# Hit rate of the full screen: of about 390,000 compounds, about 610 (0.16%) were called active. The inconclusive results got no clear call from the source; some entries with a clear call stand among them for comparison. Calls follow the shape of the dose curve; as a rule, active = well fitted inhibition curve with a large enough effect; inconclusive = small, poorly fitted or top-dose-only effect, or effect the other way, or another doubt; inactive = no such curve, though single readings can be large or run the other way. A potency beside an inconclusive call is a rough fit, not a confirmed value.
# Test: Nrf2 qHTS screen for inhibitors: counterscreen for cytotoxicity
# Conditions: A549 ARE-Fluc cells, CellTiter-Fluor viability, 18-24 h; activity change, negative = cytotoxicity: at 46 µM (top of the series)
# Summary of the method: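 A549 ARE_Fluc cells in 5% FBS OPTI-MEM were exposed to compounds in concentration-response for 18-24 h at 37 deg C. Viability was read by CellTiter-Fluor fluorescence (Ex 405/Em 525) after 30 min, before the luciferase read.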
# % is scaled to controls: 0 for no effect and ±100 for the full control effect; potency is read from the fitted curve at half-maximal effect.
SMILES,Potency,"activity change, negative = cytotoxicity"
CSc1cccc(NS(=O)(=O)c2ccc3c(c2)CCN3C(C)=O)c1,inactive,
Nc1ccc2nc(-c3ccccc3)sc2c1,inactive,
Cc1occc1C(=O)NNC(=O)CN1C(=O)NC(C)(c2ccccc2)C1=O (configuration not stated),inactive,
CCN1Cc2c(/C=C/c3ccccc3)nc3ccc(OC)cc3c2N(c2cccc(Cl)c2)C1,"inconclusive: 23.1 µM [falling, partial curve, poor fit]",
CC1=C(c2ccc(F)cc2)S(=O)(=O)N=C1N1CCC(C(=O)NCCc2cccc(C)c2)CC1,inactive,
Cc1ccc(C)c(S(=O)(=O)c2nnn3c2nc(NC2CCCC2)c2sccc23)c1,"inconclusive: 29.1 µM [falling, single point]",
Cc1ccc(NC(=O)c2ccc(NC(=O)C3CCCCC3C(=O)O)cc2)cc1 (configuration not stated),inactive,
COc1ccc(OC)c([C@@H]2Nc3ccc(C(=O)O)cc3[C@@H]3C=CC[C@@H]32)c1,inactive,
CC(C)(C)n1nnnc1C(c1cccc(C(F)(F)F)c1)N1CCC(O)CC1 (configuration not stated),"inconclusive: 18.4 µM [falling, partial curve, poor fit]",
CCOc1cc(CNc2ccc(N3CCOCC3)cc2)cc(Br)c1OCC,"inconclusive: 29.1 µM [falling, single point]",
Cc1ccc(OCCN2CCN(c3nc(NCc4ccco4)c4ccccc4n3)CC2)cc1,"inconclusive: 29.1 µM [falling, single point]",
Cc1ccc(-c2nnc(N3CCCCCC3)c3ccccc23)cc1,"inconclusive: 18.4 µM [falling, single point]",
CC(=O)c1ccc(NC(=O)CCn2cccn2)cc1,inactive,
COc1cc(C2CC(=O)c3cnc(N4CCN(Cc5ccccc5)CC4)nc3C2)cc(OC)c1OC (configuration not stated),"inconclusive: 8.2 µM [falling, partial curve, poor fit]",
COc1ccc2c(c1)-c1c(sn(-c3ccccc3)c1=S)C(C)(C)N2,inactive,
CC(C)C(NS(=O)(=O)c1c(Cl)cccc1Cl)C(=O)OCC(=O)c1c[nH]c2ccccc12 (configuration not stated),"inconclusive: 29.1 µM [falling, single point]",
COc1ccc(CCNC(=O)c2ccc3c(c2)nc2n3CCCCC2)cc1OC,,inconclusive: -55.9% [activator]
COc1ccc2[nH]c3c(=O)n(CCc4ccccc4)cnc3c2c1,inactive,
O=S(=O)(c1ccccc1)c1nc(-c2ccco2)oc1Nc1ccccc1,inactive,
Cc1cc(/C=N/n2cnnc2)c(C)n1-c1ccc(OCc2ccc(F)cc2)cc1,"inconclusive: 23.1 µM [falling, single point]",
CCOc1ccc(CNc2cc(C)nc3nc(-c4cccc(C)c4)nn23)cc1OC,inactive,
C=C(C)Cn1c(N2CCN(c3ccc(OC)cc3)CC2)nc2c1c(=O)n(C)c(=O)n2C,inactive,
Cc1ccccc1/C=C1\C(=O)Nc2ccc(F)cc21,"inconclusive: 23.1 µM [falling, partial curve, poor fit]",
CCOc1ccccc1NCc1nnc2n1CCCCC2,inactive,

# Twelve compounds out of the list, arranged by heavy-atom count, smallest number first:
SMILES,Potency,"activity change, negative = cytotoxicity"
Nc1ccc2nc(-c3ccccc3)sc2c1,inactive,
CC(=O)c1ccc(NC(=O)CCn2cccn2)cc1,inactive,
CCOc1ccccc1NCc1nnc2n1CCCCC2,inactive,
COc1ccc2[nH]c3c(=O)n(CCc4ccccc4)cnc3c2c1,inactive,
O=S(=O)(c1ccccc1)c1nc(-c2ccco2)oc1Nc1ccccc1,inactive,
CCOc1cc(CNc2ccc(N3CCOCC3)cc2)cc(Br)c1OCC,"inconclusive: 29.1 µM [falling, single point]",
Cc1ccc(NC(=O)c2ccc(NC(=O)C3CCCCC3C(=O)O)cc2)cc1 (configuration not stated),inactive,
Cc1ccc(C)c(S(=O)(=O)c2nnn3c2nc(NC2CCCC2)c2sccc23)c1,"inconclusive: 29.1 µM [falling, single point]",
CCOc1ccc(CNc2cc(C)nc3nc(-c4cccc(C)c4)nn23)cc1OC,inactive,
C=C(C)Cn1c(N2CCN(c3ccc(OC)cc3)CC2)nc2c1c(=O)n(C)c(=O)n2C,inactive,
CCN1Cc2c(/C=C/c3ccccc3)nc3ccc(OC)cc3c2N(c2cccc(Cl)c2)C1,"inconclusive: 23.1 µM [falling, partial curve, poor fit]",
COc1cc(C2CC(=O)c3cnc(N4CCN(Cc5ccccc5)CC4)nc3C2)cc(OC)c1OC (configuration not stated),"inconclusive: 8.2 µM [falling, partial curve, poor fit]",

# (cont.)

SMILES,Potency,"activity change, negative = cytotoxicity"
O=C(CCCn1c(=O)[nH]c2ccc(Br)cc2c1=O)N1CCN(c2cccc(Cl)c2)CC1,"inconclusive: 29.1 µM [falling, single point]",
Cc1ccc(-c2nnc(NC(=O)c3ccc([N+](=O)[O-])o3)o2)c(C)c1,"inconclusive: 29.1 µM [falling, single point]",
CCOC(=O)/C(=C\c1ccc(N2CCC(c3ccccc3)=N2)cc1)C(C)=O,inactive,
COc1ccccc1Nc1cc2ccccc2c(=O)[nH]1,"inconclusive: 8.2 µM [falling, partial curve, poor fit]",
COc1ccccc1C(=O)Nc1ccc2c(c1)nc(CCNC(=O)c1ccco1)n2C,"inconclusive: 4.11 µM [falling, partial curve, poor fit]",
C[C@@H]1CN([C@@H](C)CO)C(=O)c2cc(NC(=O)Nc3ccccc3)ccc2O[C@H]1CN(C)C(=O)Nc1cccc2ccccc12,inactive,
CCCCCCCCCCOC(=O)Cn1c(COc2ccccc2C)[n+](C)c2ccccc21,"inconclusive: 16.4 µM [falling, partial curve, poor fit]",
CCc1noc(C)c1C(=O)Nc1nc(-c2ccc(Cl)cc2Cl)cs1,inactive,
CCCc1nc2ccccc2c(C(=O)OCC(=O)NCc2ccc3c(c2)OCO3)c1CC,"inconclusive: 16.4 µM [falling, single point]",
COc1cc(/C=C2\SC(=Nc3ccccc3)N(Cc3ccco3)C2=O)ccc1OC(C)C(=O)O (configuration not stated),"inconclusive: 23.1 µM [falling, partial curve, poor fit]",
Cc1nc(NCCCn2ccnc2)c2ccccc2n1,"inconclusive: 0.517 µM [falling, full curve, poor fit]",
CCOC(=O)c1cnc(-n2nc(C)cc2C)nc1Nc1ccc(C)cc1,"inconclusive: 29.1 µM [activator, partial curve, poor fit]",
COc1ccc(NS(=O)(=O)c2cc(NC(=O)[C@@H](NC(=O)c3ccccc3)C(C)C)ccc2C)cc1,"inconclusive: 25.9 µM [falling, single point]",
Cn1c(=O)c2c(nc(N3CCOCC3)n2Cc2ccccc2Cl)n(C)c1=O,"inconclusive: 18.4 µM [falling, partial curve, poor fit]",
CC(C)Cn1c(CN2CCN(c3cccc(Cl)c3)CC2)nc2c1c(=O)[nH]c(=O)n2C,inactive,
CCOc1cc(NC(=S)NCC2CCCO2)c(OCC)cc1NC(=O)c1ccc(OC)cc1 (configuration not stated),inactive,
O=C(Nc1ncc(Cl)cn1)c1cccs1,inactive,
FC(F)Oc1ccc(NC(=S)NNc2ccnc3cc(Cl)ccc23)cc1,inactive,
Oc1ccccc1/C=N/Nc1nccnc1Cl,inactive,
COCCN(Cc1cc2cc3c(cc2nc1Cl)OCO3)C(=O)Nc1ccc(OC)cc1,inactive,
COC(=O)c1c(-c2ccc(F)cc2)csc1NC(=O)C1CCCO1 (configuration not stated),inactive,
Cn1ncc2cc(NC(=S)NC(=O)c3ccccc3)ccc21,"inconclusive: 0.517 µM [falling, partial curve, poor fit]",
O=C(NCc1ccccc1)c1c(O)c2cccc3c2n(c1=O)CCC3,"inconclusive: 23.1 µM [activator, single point]",
CCN1CCN(c2nc(Nc3cccc(OC)c3)nc(N)c2[N+](=O)[O-])CC1,"inconclusive: 16.4 µM [falling, partial curve, poor fit]",

# Structural class, those above with a nitro group on carbon
SMILES,Potency,"activity change, negative = cytotoxicity"
Cc1ccc(-c2nnc(NC(=O)c3ccc([N+](=O)[O-])o3)o2)c(C)c1,"inconclusive: 29.1 µM [falling, single point]",
CCN1CCN(c2nc(Nc3cccc(OC)c3)nc(N)c2[N+](=O)[O-])CC1,"inconclusive: 16.4 µM [falling, partial curve, poor fit]",

# Further compounds:

SMILES,Potency,"activity change, negative = cytotoxicity"
O=C(COc1ccccc1)NCC(=O)N1CCCC1,inactive,
Oc1cc(O)cc(/C=C/c2ccc(O)c(O)c2)c1,"inconclusive: 29.1 µM [falling, single point]",
O=S(Cc1ccccc1)CC(O)(c1ccc(Cl)cc1)c1ccc(Cl)cc1 (configuration not stated),"inconclusive: 14.6 µM [falling, partial curve, poor fit]",
COc1ccc2nc3cc(Cl)ccc3c(Nc3ccc(O)c(CN4CCN(C)CC4)c3)c2c1,"inconclusive: 29.1 µM [falling, single point]",
O=C1NC(c2ccccc2)=C(c2nc3ccccc3s2)C(c2ccccc2)N1 (configuration not stated),"inconclusive: 23.1 µM [falling, partial curve, poor fit]",
CNC[C@@H](Cc1ccccc1)NC[C@@H](CC1CCCCC1)NCCCc1ccccc1,"inconclusive: 29.1 µM [falling, single point]",
CCOc1ccc(S(=O)(=O)NCCCn2ccnc2)cc1,"inconclusive: 4.61 µM [activator, full curve, poor fit]",
CCOC(=O)c1sc2nccc(N(C)C)c2c1N=CNOCc1c(F)cccc1Cl,inactive,
COc1ccc(-c2ccc(-c3noc(C)n3)c(OC)n2)cc1,inactive,
COc1ccc(CCNC(=O)COc2ccc(S(=O)(=O)N3CCOCC3)cc2C)cc1,inactive,
CC(C)N1CCc2c(sc(NC(=O)c3ccco3)c2C(N)=O)C1,inactive,
CCCSC1=N/C(=C\c2ccc([N+](=O)[O-])o2)C(=O)S1,"inconclusive: 16.4 µM [falling, partial curve, poor fit]",
Cc1cc(C)n(-c2nc3ccccc3nc2Nc2ccc3[nH]c(=O)[nH]c3c2)n1,"inconclusive: 29.1 µM [falling, partial curve, poor fit]",
Cc1cccc(-c2noc(C3CCCCC3)n2)c1,"inconclusive: 3.26 µM [falling, partial curve, poor fit]",
O=S(=O)(NCC(c1ccc2c(c1)OCO2)N1CCN(c2ccccc2)CC1)c1ccccc1 (configuration not stated),"inconclusive: 25.9 µM [falling, partial curve, poor fit]",
Nc1c(C(=O)NCc2cccs2)nnn1CC(=O)Nc1cccc(F)c1,inactive,
CCOc1ccc(C2NC(=O)c3n[nH]c(C)c32)cc1 (configuration not stated),inactive,
CSc1nc(N)c(C#N)c(-c2ccc(Cl)cc2)c1C#N,"inconclusive: 16.4 µM [falling, partial curve, poor fit]",
COc1ccc(C/C(N)=N/n2cnnc2)cc1,inactive,
CCC(=O)NC(=S)Nc1ccc(NC(=O)c2ccco2)cc1,inactive,
N#CC1=C(N)Oc2c(ccc3ccccc23)C1c1ccsc1 (configuration not stated),"inconclusive: 20.6 µM [falling, single point]",
O=C(c1ccc(COc2ccc3ccccc3c2)o1)N1N=C(C(F)F)CC1(O)C(F)F (configuration not stated),"inconclusive: 13 µM [activator, partial curve, poor fit]",
O=C1[C@@H]2C(c3cccnc3)=NO[C@@H]2C(=O)N1c1ccc(Cl)cc1Cl,"inconclusive: 4.61 µM [activator, partial curve, poor fit]",
Cc1ccc(-c2cc(C(=O)N3CCN(c4ccccc4O)CC3)c3ccccc3n2)cc1,"inconclusive: 29.1 µM [falling, partial curve, poor fit]",
